Experimental data as given in article PMC9346003.
No constants are given. Whether binding was seen depends on the method and setting. Binding seen in cells or lysates may run through a third protein. Some results given as binding are weak or reduced against the parent protein; the word gives no strength. Where a sequence is shown, tags or fusion partners need not be part of it.

Molecular target: T1, myc-TAK1 1-606aa full length (UniProt O43318)
T1 sequence: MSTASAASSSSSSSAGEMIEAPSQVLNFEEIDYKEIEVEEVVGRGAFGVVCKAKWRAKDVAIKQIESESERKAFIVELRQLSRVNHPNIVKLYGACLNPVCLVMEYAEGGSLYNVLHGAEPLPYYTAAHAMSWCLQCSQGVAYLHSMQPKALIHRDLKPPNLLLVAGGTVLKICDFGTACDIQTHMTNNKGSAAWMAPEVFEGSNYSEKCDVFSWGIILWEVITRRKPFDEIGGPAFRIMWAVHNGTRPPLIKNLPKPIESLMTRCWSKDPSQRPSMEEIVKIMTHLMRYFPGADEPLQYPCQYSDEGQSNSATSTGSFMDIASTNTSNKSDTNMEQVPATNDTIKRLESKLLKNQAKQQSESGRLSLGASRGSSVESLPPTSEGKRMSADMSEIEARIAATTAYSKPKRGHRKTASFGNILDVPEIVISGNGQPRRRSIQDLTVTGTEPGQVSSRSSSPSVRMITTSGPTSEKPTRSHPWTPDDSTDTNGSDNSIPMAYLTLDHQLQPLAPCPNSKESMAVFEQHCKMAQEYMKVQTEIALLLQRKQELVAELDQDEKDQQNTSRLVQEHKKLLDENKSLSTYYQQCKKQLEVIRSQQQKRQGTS
Assay: co-IP; 293T cells transfected with vector control or Flag-GPX4 and Myc-TAK1 for 48 h; Myc-IP; more TAB1 with TAK1 when GPX4 was overexpressed

B1: TAB1, endogenous in 293T cells (protein, UniProt Q15750 1-504)
chain: MAAQRRSLLQSEQQPSWTDDLPLCHLSGVGSASNRSYSADGKGTESHPPEDSWLKFRSENNCFLYGVFNGYDGNRVTNFVAQRLSAELLLGQLNAEHAEADVRRVLLQAFDVVERSFLESIDDALAEKASLQSQLPEGVPQHQLPPQYQKILERLKTLEREISGGAMAVVAVLLNNKLYVANVGTNRALLCKSTVDGLQVTQLNVDHTTENEDELFRLSQLGLDAGKIKQVGIICGQESTRRIGDYKVKYGYTDIDLLSAAKSKPIIAEPEIHGAQPLDGVTGFLVLMSEGLYKALEAAHGPGQANQEIAAMIDTEFAKQTSLDAVAQAVVDRVKRIHSDTFASGGERARFCPRHEDMTLLVRNFGYPLGEMSQPTPSPAPAAGGRVYPVSVPYSSAQSTSKTSVTLSLVMPSQGQMVNGAHSASTLDEATPTLTNQSPTLTLQSTNTHTQSSSSSSDGGLFRSRPAHSLPPGEDGRVEPYVDFAEFYRLWSVDHGEQSVVTAP
With B1 the binding was “binds”.
